Source: US20230130831A1, “METHODS FOR DETECTING AND TREATING JOINT DISEASE” (Washington University, priority 2021, published 2023)
At least one compound was matched to its structure with a doubt left.

System: C57BL/6 mice with induced arthritis (K/BxN serum transfer)
Assay: Serum transfer arthritis: clinical paw scores and ankle thickness after treatment
Format: in vivo, mouse
Settings: 10 mg/kg/dose i.p. daily over 6 days

Q: Which “disease severity (clinical paw scores, ankle thickness)” value does the source give for `C[C@@H]1C[C@H]2[C@@H]3CCC4=CC(=O)C=C[C@]4(C)[C@@]3(F)[C@@H](O)C[C@]2(C)[C@@]1(O)C(=O)CO` [DEX, dexamethasone] here?
A: Its value is “showed reductions in disease severity”.
